This test concerns the target Apaf-1 (native human Apaf-1 from HeLa cell cytosol) (human) (UniProt O14727). The experiment in a line: co-immunoprecipitation with anti-Apaf-1 antiserum from un-fractionated HeLa cell S-100, Western blot. (A western blot detects proteins with antibodies after separation by electrophoresis.)

Sequences of proteins named here, by UniProt entry; tags and fusion partners are left off. A change or cut given only in a name is not applied to a line headed by its entry. Residues count along the entry.
UniProt O14727: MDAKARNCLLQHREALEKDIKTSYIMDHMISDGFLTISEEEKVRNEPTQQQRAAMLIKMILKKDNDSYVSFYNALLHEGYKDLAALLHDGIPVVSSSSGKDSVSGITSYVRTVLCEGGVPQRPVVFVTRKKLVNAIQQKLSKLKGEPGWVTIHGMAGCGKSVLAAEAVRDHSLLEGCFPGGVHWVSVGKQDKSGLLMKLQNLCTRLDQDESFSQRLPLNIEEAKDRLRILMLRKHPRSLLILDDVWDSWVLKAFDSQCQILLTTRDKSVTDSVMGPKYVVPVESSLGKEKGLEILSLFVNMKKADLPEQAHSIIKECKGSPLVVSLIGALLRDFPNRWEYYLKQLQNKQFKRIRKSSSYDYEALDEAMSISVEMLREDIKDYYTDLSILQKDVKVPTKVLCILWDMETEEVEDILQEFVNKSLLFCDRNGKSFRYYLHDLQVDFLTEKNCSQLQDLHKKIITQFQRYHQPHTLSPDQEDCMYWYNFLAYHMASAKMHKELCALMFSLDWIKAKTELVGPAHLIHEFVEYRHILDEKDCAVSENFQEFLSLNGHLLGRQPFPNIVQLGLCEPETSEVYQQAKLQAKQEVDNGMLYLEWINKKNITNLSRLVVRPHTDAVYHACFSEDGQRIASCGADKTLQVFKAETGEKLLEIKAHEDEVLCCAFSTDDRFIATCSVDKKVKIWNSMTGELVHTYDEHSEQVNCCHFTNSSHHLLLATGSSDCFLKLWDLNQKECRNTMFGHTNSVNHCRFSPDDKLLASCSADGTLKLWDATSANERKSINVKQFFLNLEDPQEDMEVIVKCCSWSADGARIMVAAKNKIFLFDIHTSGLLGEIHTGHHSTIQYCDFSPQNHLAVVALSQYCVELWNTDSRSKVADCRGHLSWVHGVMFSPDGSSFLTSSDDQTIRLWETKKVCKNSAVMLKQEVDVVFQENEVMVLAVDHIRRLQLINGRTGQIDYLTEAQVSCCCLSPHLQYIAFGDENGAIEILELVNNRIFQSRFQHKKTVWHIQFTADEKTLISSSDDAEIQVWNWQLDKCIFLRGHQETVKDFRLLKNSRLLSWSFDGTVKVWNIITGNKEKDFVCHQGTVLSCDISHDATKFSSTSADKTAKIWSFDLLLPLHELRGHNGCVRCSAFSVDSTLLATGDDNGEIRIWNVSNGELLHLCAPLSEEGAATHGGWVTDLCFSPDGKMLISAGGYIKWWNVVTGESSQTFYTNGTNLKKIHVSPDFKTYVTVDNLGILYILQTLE
UniProt P99999, residues 2-105: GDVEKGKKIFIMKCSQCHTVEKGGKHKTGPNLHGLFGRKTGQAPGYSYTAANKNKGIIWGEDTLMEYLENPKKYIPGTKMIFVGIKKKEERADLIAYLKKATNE

Results are given in words; binding and its absence hold for the method and conditions named. Binding seen in cells or lysates may run through a third protein. Some binding calls cover weakened binding; strength is not graded here.

As to “cytochrome c in un-fractionated HeLa cell S-100 (from UniProt P99999 2-105)”, the binding result is “binds”.
